Values from PubChem BioAssay AID504786 (Drosophila RNAi Screening Center, 2011)
Test: 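Fly genes required for HIF-dependent transcription when hypoxia is mimicked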 (primary screen). Cell system: Drosophila S2 cells with a stable HIF luciferase reporter. Knock-down reagent: long dsRNA against Drosophila genes, about 0.2 µg dsRNA per well of a 384-well plate. Time to read-out: three days of knock-down, then 20 h of DFO before reading. Treatment: desferrioxamine (DFO) at 100 µM, an iron chelator that mimics hypoxia, for 20 h. Measurement: 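HIF reporter luminescence in cells given 100 µM DFO for 20 h, using the mouse ldh-a hypoxia-response element, scored as per-plate z-scores; higher means greater loss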. Reading the numbers: z-score: higher = stronger loss of HIF reporter signal.
The screen tested about 21,000 reagents; shown is a random part of those with a known target gene and a result. 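Primary screen; positive scores mean lost reporter signal, so the sign may be inverted from the usual convention.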 Reagents against one gene are numbered here. A plus sign joins genes that one reagent is predicted to hit.

| gene knocked down | reagent | z-score, replicate 1 | z-score, replicate 2 | z-score, replicate 3 | z-score, replicate 4 |
| --- | --- | --- | --- | --- | --- |
| CG16989 | 1 | -0.2 | -0.7 | – | – |
| CG14053 | 1 | 0 | -0.4 | – | – |
| CG12316 | 1 | -0.2 | -0.6 | – | – |
| tst + CG10375 | 1 | -0.1 | 0.3 | – | – |
| CG14043 | 1 | -0.3 | -0.5 | – | – |
| Rrp42 | 1 | 0.2 | 1.3 | – | – |
| Ppox | 1 | -0.4 | 0 | – | – |
| Fpgs2 | 1 | -0.2 | -0.3 | – | – |
| CG14402 | 1 | -0.1 | -0.2 | – | – |
| Ufd1 | 1 | -0.1 | 0.4 | – | – |
| LKRSDH | 1 | -0.3 | -0.4 | – | – |
| CG4269 | 1 | 1.7 | -0.3 | – | – |
| CG42843 (retired record) | 1 | -0.2 | 0 | – | – |
| CG42843 (retired record) | 2 | -0.3 | -0.5 | – | – |
| CG42843 (retired record) | 3 | -0.1 | -0.2 | – | – |
| CG6216 | 1 | -0.2 | 0 | – | – |
| CG13014 | 1 | -0.3 | -0.7 | – | – |
| Mics1 | 1 | -0.4 | -0.8 | – | – |
| xmas-1 (retired record) | 1 | -0.3 | -0.6 | – | – |
| CG7328 | 1 | -0.3 | 0 | – | – |
| CG9426 | 1 | -0.3 | 3.6 | – | – |
| p47 | 1 | -0.1 | 1.1 | – | – |
| CG13908 (retired record) | 1 | 0.5 | 0.1 | – | – |
| Idh3b | 1 | -0.1 | -0.4 | – | – |
| Tis11 | 1 | 0 | 0.3 | – | – |
| ND-19 | 1 | 0 | -0.1 | – | – |
| Art7 | 1 | -0.2 | -0.4 | – | – |
| Pgant1 | 1 | -0.4 | -0.4 | – | – |
| CAH13 | 1 | -0.2 | -0.5 | – | – |
| CG7300 | 1 | -0.4 | -0.5 | – | – |
| RpL38 | 1 | 7.6 | 5.6 | – | – |
| CG42780 | 1 | -0.3 | -0.2 | – | – |
| CG12209 | 1 | -0.2 | -0.5 | – | – |
| mtt | 1 | 0 | -0.2 | – | – |
| mtt | 2 | 1.3 | 1 | – | – |
| mtt | 3 | -0.3 | -0.2 | – | – |
| mtt | 4 | -0.4 | -0.4 | – | – |
| RpS30 | 1 | 3.8 | 7.6 | – | – |
| TwdlN | 1 | 0.5 | 2.9 | – | – |
| Teh1 | 1 | -0.4 | -0.7 | – | – |

14 entries from above, limited to “z-score, replicate 1”:
Ufd1	-0.1
LKRSDH	-0.3
CG4269	1.7
CG42843 (retired record) #1	-0.2
CG42843 (retired record) #2	-0.3
CG42843 (retired record) #3	-0.1
CG6216	-0.2
CG13014	-0.3
Mics1	-0.4
xmas-1 (retired record)	-0.3
CG7328	-0.3
CG9426	-0.3
p47	-0.1
CG13908 (retired record)	0.5

Continued:
| gene knocked down | reagent | z-score, replicate 1 | z-score, replicate 2 | z-score, replicate 3 | z-score, replicate 4 |
| --- | --- | --- | --- | --- | --- |
| unc-45 | 1 | -0.3 | -0.9 | – | – |
| CG6695 | 1 | -0.2 | -0.7 | – | – |
| CG2656 | 1 | -0.4 | -0.6 | – | – |
| tsu | 1 | 0.8 | 0.3 | – | – |
| bol | 1 | -0.3 | -0.2 | – | – |
| bol | 2 | -0.1 | 0.5 | – | – |
| bol | 3 | 0.2 | 0.3 | – | – |
| Atg7 | 1 | -0.1 | 0.1 | – | – |
| Atg7 | 2 | -0.4 | -0.2 | – | – |
| CG34244 | 1 | 0.3 | -0.1 | – | – |
| CG33459 | 1 | -0.3 | -0.4 | – | – |
| CG13671 | 1 | -0.2 | -0.5 | – | – |
| nonC | 1 | -0.1 | 0.3 | – | – |
| nonC | 2 | -0.2 | -0.4 | – | – |
| r2d2 | 1 | 0 | 0 | – | – |
| mib2 | 1 | -0.4 | -0.4 | – | – |
| CG6765 | 1 | -0.1 | 1.2 | – | – |
| Picot | 1 | -0.1 | 0.1 | – | – |
| spz5 | 1 | -0.2 | 0.6 | – | – |
| Snr1 | 1 | 3.3 | 3.2 | – | – |
| Arp5 | 1 | -0.3 | -0.5 | – | – |
| CG3942 | 1 | -0.3 | -0.4 | – | – |
| CG3534 | 1 | -0.1 | -0.4 | – | – |
| Brr2 | 1 | 5.6 | 4.1 | – | – |
| alt | 1 | -0.3 | -0.7 | – | – |
| CG33306 | 1 | -0.3 | -0.3 | – | – |
| Sfp53D | 1 | 0.1 | -0.2 | – | – |
| Ir94e | 1 | -0.2 | -1 | 0.3 | -0.2 |
| GC | 1 | -0.2 | -0.1 | – | – |
| CG42613 | 1 | -0.7 | -0.5 | – | – |
| CG42613 | 2 | 0.4 | 1.2 | – | – |
| CG42613 | 3 | -0.2 | -0.5 | – | – |
| phol | 1 | -0.5 | -0.9 | – | – |
| rump | 1 | 1.8 | 1.3 | – | – |
| MFS3 | 1 | -0.3 | -1 | – | – |
| rgn | 1 | 0 | -0.3 | – | – |
| CG34024 (retired record) | 1 | -0.3 | 0 | – | – |
| muc | 1 | -0.4 | -0.5 | – | – |
| Sap30 | 1 | -0.3 | -0.4 | – | – |
| Sps1 | 1 | 0.6 | 0.2 | – | – |
| CG12362 | 1 | -0.3 | 0 | – | – |
| Impbeta11 | 1 | 0 | -0.1 | – | – |
| CG14104 | 1 | -0.3 | 0 | – | – |
| polo | 1 | -0.3 | -0.5 | -0.9 | -0.2 |
| CG10936 | 1 | -0.9 | -0.3 | – | – |
| CG10936 | 2 | -0.8 | -0.4 | – | – |
| CG10936 | 3 | -0.3 | -0.3 | – | – |
| Or83c | 1 | -0.2 | -0.6 | – | – |
| CG31546 | 1 | -0.4 | -0.8 | – | – |
| app | 1 | -0.3 | -0.5 | – | – |
| app | 2 | -0.4 | -0.2 | – | – |
| app | 3 | -0.2 | -0.2 | – | – |
| CG3777 | 1 | -0.7 | -0.6 | – | – |
| CG13113 | 1 | -0.3 | 0.9 | – | – |
| CG13876 | 1 | -0.3 | -0.7 | – | – |
| CG7860 | 1 | -0.4 | -0.6 | – | – |
| dpr9 | 1 | -0.4 | -0.2 | – | – |
| dpr9 | 2 | -0.2 | -0.2 | – | – |
| dpr9 | 3 | -0.7 | -0.2 | – | – |
| CG6028 | 1 | -0.3 | 0.3 | – | – |
| CG17385 | 1 | 0.5 | -0.1 | – | – |
| fmt | 1 | 0 | -0.2 | – | – |
| Apl | 1 | -0.1 | -0.6 | – | – |
| CG34051 | 1 | -0.7 | 1.4 | 0.4 | 0 |
| Mkk4 | 1 | -0.2 | 0.6 | – | – |
| Dpy-30L2 | 1 | -0.4 | -0.6 | – | – |
